The values below come from patent US20110021746A1 (published 2011).

Protein sequences, listed by entry. Tags and fused reporters are not part of them. Residues count along the entry.
UniProt P35968, residues 20-764: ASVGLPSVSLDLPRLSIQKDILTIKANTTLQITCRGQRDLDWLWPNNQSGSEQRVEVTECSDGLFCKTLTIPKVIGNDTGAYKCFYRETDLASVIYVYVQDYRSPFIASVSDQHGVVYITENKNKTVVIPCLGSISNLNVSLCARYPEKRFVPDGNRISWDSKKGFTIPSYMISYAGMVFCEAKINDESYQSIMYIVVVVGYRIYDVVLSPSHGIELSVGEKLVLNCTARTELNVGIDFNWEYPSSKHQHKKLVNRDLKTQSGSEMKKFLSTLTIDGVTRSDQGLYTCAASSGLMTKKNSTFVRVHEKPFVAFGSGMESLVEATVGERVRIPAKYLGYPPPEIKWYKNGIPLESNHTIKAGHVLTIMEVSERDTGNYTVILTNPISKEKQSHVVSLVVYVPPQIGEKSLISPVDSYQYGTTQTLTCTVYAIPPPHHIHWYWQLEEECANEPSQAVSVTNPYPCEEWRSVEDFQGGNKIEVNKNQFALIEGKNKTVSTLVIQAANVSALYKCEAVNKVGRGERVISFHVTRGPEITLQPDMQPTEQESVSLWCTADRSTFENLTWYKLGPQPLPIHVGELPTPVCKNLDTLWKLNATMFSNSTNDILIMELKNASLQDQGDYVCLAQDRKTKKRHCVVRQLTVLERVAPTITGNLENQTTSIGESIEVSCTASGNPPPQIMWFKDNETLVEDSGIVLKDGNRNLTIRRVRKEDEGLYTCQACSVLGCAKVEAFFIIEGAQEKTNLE

The labels stand for the following.
B1: SEQ ID NO 267 (designed binder)
chain: NVSPPRRARVTDATETTITIRWELPIEASGLVPGFQVDAVPANGQTPIQRTINADTSTYTITGLQPGTDYKIYLYTLNDNARSSPVVIDAST
B2: SEQ ID NO 299 (designed binder)
chain: B1 chain with P25G, I26S, E27D, A28R, S29D, G30S, L31E, G34S, T56I
B3: SEQ ID NO 303 (designed binder)
chain: B1 chain with E23T, L24V, I26E, E27G, A28G, S29D, G30S, L31I, G34S, T56V
B4: SEQ ID NO 315 (designed binder)
chain: B1 chain with E23Q, P25G, I26V, E27G, A28P, S29G, L31T, V32I, T56I
B5: SEQ ID NO 307 (designed binder)
chain: B1 chain with E23T, L24V, I26V, E27H, A28G, G30S, L31V, V32I, G34S, T56V
B6: SEQ ID NO 305 (designed binder)
chain: B1 chain with E23T, L24V, I26E, A28R, S29D, L31V, V32I, T56I
B7: SEQ ID NO 298 (designed binder)
chain: B1 chain with E23A, L24Q, P25G, I26G, E27N, A28G, L31V, V32I, G34S, T56V
B8: SEQ ID NO 301 (designed binder)
chain: B1 chain with L24Q, I26V, E27H, A28P, S29N, G30S, V32I, G34S, T56V
B9: SEQ ID NO 306 (designed binder)
chain: B1 chain with E23Q, L24A, I26D, E27D, A28G, S29D, L31V, S57N
B10: SEQ ID NO 296 (designed binder)
chain: B1 chain with E23Q, E27R, S29D, G30S, L31A, V32I, G34S, T56I
B11: SEQ ID NO 310 (designed binder)
chain: B1 chain with E23K, I26S, E27H, A28P, G30S, L31V, P33L, D55T, T56V
B12: SEQ ID NO 304 (designed binder)
chain: B1 chain with E23A, L24P, P25G, I26E, A28R, S29G, G30S, L31V, G34S
B13: 1637102_VGR2F11 (designed binder)
chain: NVSPPRRARVTDATETTITIRWTRAAGEVDGFQVDAVPANGQTPIQRTINADTNTYTITGLQPGTDYKIYLYTLNDNARSSPVVIDAST
B14: SEQ ID NO 289 (designed binder)
chain: B13 chain with R7S
B15: SEQ ID NO 287 (designed binder)
chain: B13 chain with T23E, A26R, G27S, T55V
B16: SEQ ID NO 272 (designed binder)
chain: B13 chain with R7S, A26R, G27S, D30I, T55I
B17: SEQ ID NO 291 (designed binder)
chain: B13 chain with R7C
B18: SEQ ID NO 293 (designed binder)
chain: B13 chain with T23A, A26P, E28P, V29F, T55I, L74F
B19: SEQ ID NO 308 (designed binder)
chain: NVSPPRRARVTDATETTITISWRTKTETITGFQVDAVPANGQTPIQRTIDTSANSYTITGLQPGTDYKIYLYTLNEYGDSNFTQLTGVIDAST
B20: SEQ ID NO 302 (designed binder)
chain: NVSPPRRARVTDATETTITIRWEVPNKGGSQLLSFQVDAVPANGQTPIQRTINATTNVYTITGLQPGTDYKIYLYTLNDNARSSPVVIDAST
B21: SEQ ID NO 311 (designed binder)
chain: B20 chain with E23K, V24Q, N26I, K27H, G28A, G29D, Q31I, T55S, V58I
B22: SEQ ID NO 313 (designed binder)
chain: NVSPPRRARVTDATETTITIRWRAARSQFGFQVDAVPANGQTPIQRTIHADASTYTITGLQPGTDYKIYLYTLNDNARSSPVVIDAST
B23: SEQ ID NO 265 (designed binder)
chain: NVSPPRRARVTDATETTITIRWETPEYNGGTAIPGFQVDAVPANGQTPIQRTINADISTYTITGLQPGTDYKIYLYTLNDNARSSPVVIDAST
B24: SEQ ID NO 294 (designed binder)
chain: B23 chain with E23S, E26A, N28A, T31G, A32E, I33V, G35S, I57V
B25: SEQ ID NO 300 (designed binder)
chain: B23 chain with E23K, T24A, E26I, Y27D, T31S, A32T, I33V, I57T
B26: SEQ ID NO 269 (designed binder)
chain: B23 chain with R7S, E23D, E26G, Y27D, N28A, T31S, A32G, G35S, I57V
B27: SEQ ID NO 268 (designed binder)
chain: B23 chain with E23G, T24A, Y27L, N28D, T31S, A32G, G35S
B28: SEQ ID NO 271 (designed binder)
chain: B23 chain with E23G, T24Q, E26R, T31S, A32T, I33V, G35S
B29: SEQ ID NO 312 (designed binder)
chain: B23 chain with E23N, E26G, Y27D, N28A, T31S, A32T, I33V
B30: SEQ ID NO 297 (designed binder)
chain: B23 chain with E23R, E26A, Y27D, N28T, T31A, A32G, G35S, N54H, I57V
B31: SEQ ID NO 288 (designed binder)
chain: NVSPPRRARVTDATETTITISWRLPAGAVAGFQVDAVPANGQTPIQRTIKPDVRSYTITGLQPGTDYKIYLYTLTRGRGGSSPVVIDAST
B32: SEQ ID NO 266 (designed binder)
chain: NVSPPRRARVTDATETTITIRWAVSQSAFDSFQVDAVPANGQTPIQRTIHATTSTYTITGLQPGTDYKIYLYTLNDNARSSPVVIDAST
B33: SEQ ID NO 278 (designed binder)
chain: B32 chain with R7C, A23R, S25A, Q26G, A28E, T52A, S54T
B34: SEQ ID NO 290 (designed binder)
chain: B32 chain with R7H, A23T, Q26A, A28E, S54T
B35: SEQ ID NO 277 (designed binder)
chain: B32 chain with A23K, S25A, Q26G, A28E, T52A, S54T
B36: SEQ ID NO 276 (designed binder)
chain: B32 chain with R7H, A23K, S25A, Q26G, S27G, A28T, H50N, T52A, S54T
B37: SEQ ID NO 279 (designed binder)
chain: B32 chain with R7H, A23T, S25A, Q26E, A28T, T52A, S54T
B38: SEQ ID NO 283 (designed binder)
chain: B32 chain with S25A, Q26G, A28E, T52A, S54T
B39: SEQ ID NO 282 (designed binder)
chain: B32 chain with A23R, S25A, Q26G, A28E, T52A, S54T, D66Y
B40: SEQ ID NO 309 (designed binder)
chain: B32 chain with A23K, S25A, Q26G, A28Q, D30T, H50N, T52A, S54T
B41: 1637103_VGR2E12 (designed binder)
chain: B32 chain with A23K, S25A, Q26G, S27G, A28T, H50N, T52A, S54T
B42: SEQ ID NO 292 (designed binder)
chain: B32 chain with A23K, S25A, Q26G, S27G, A28E, T52A, S54T
B43: 1637103_VGR2F12 (designed binder)
chain: B32 chain with R7H, A23R, S25A, Q26G, A28E, T52A, S54T
B44: SEQ ID NO 280 (designed binder)
chain: B32 chain with R7S, A23K, S25A, Q26G, S27G, A28T, H50N, T52A, S54T
B45: 1637103_VGR2H03 (designed binder)
chain: B32 chain with A23R, S25A, Q26G, A28E, T52A, S54T

Where a chain is given by its changes, count along the chain named. No constants are given. Whether binding was seen depends on the method and setting. Some entries that bind do so weakly or less than the wild type.

The experiment addresses VEGFR2 (UniProt P35968). Description: phage display selection.
B1: the binding result is “binds”. As for B2, the binding result is given as “binds”. Consider B3, for which the binding entry is given as “binds”. On to B4, for which the binding entry is recorded as “binds”. B5: the binding entry is recorded as “binds”. With B6, the binding result is on record as “binds”. Consider B7, for which the binding entry was “binds”. As for B8, the binding result was “binds”.

On to B9, for which the binding result is listed as “binds”. For B10, the binding result is “binds”. As to B11, the binding entry was “binds”.

B12: the binding entry was “binds”. As for B13, the binding entry is listed as “binds”. As to B14, the binding result is listed as “binds”. For the molecule B15, the binding result is recorded as “binds”. Turning to B16, the binding entry was “binds”. Take B17: the binding entry is given as “binds”. For B18 the value was “binds”; for B19, “binds”. With B20 the entry was “binds”.

In the case of B21, the binding result is “binds”. For B22, the binding entry is “binds”. Take B23: the binding entry is given as “binds”.

As for B24, the binding entry is recorded as “binds”. As for B25, the binding entry is reported as “binds”. As to B26, the binding entry is reported as “binds”. Regarding B27, the binding entry is given as “binds”.

In the case of B28, the binding result is on record as “binds”. With B29 the entry was “binds”. For B30, the binding entry is given as “binds”.

Consider B31, for which the binding result is on record as “binds”. B32: the binding entry is “binds”. With B33, the binding result is given as “binds”. In the case of B34, the binding result is “binds”. Turning to B35, the binding result is reported as “binds”.

Take B36: the binding entry was “binds”. For B37 the value was “binds”; for B38, “binds”; for B39, “binds”. Turning to B40, the binding result is “binds”. B41: the binding result is on record as “binds”. For B42 the value was “binds”. For B43 the value was “binds”; for B44, “binds”. B45: the binding entry is given as “binds”.
